Results on one sequence are retold here after PMC5996148.

What all share (assay): protein microarray (ProtoArray v5.0), streptavidin-Alexa Fluor 647
What all share (conditions): 3'-biotin; 20 mM Tris (pH 7.5), 5 mM MgCl2, 100 mM KCl, 0.1% Tween-20, A/T-rich and random oligonucleotide blockers; temperature not stated; high values mean tight binding

Assay [1] deals with Chloride channel protein ClC-Ka (human).
In assay [2] the test system is Ciliary neurotrophic factor (human).
Assay [3] has as its system Coiled-coil domain-containing protein 115 (human).
The subject of assay [4] is Coiled-coil domain-containing protein 126 (human).
For assay [5], the system named is Coiled-coil domain-containing protein 15 (human).
The subject of assay [6] is Coiled-coil domain-containing protein 28A (human).
The subject of assay [7] is Coiled-coil domain-containing protein 5 (human).
The subject of assay [8] is Coiled-coil domain-containing protein 6 (human).
The subject of assay [9] is Coiled-coil domain-containing transmembrane protein C7orf53 (human).
In assay [10] the test system is Complement decay-accelerating factor (human).
Assay [11] has as its system Copine-6 (human).
Assay [12] concerns Copper chaperone for superoxide dismutase (human).
In assay [13] the test system is Cyclin-dependent kinase-like 3 (human).
The test system of assay [14] is Cystathionine beta-synthase (human).
The subject of assay [15] is Cysteine dioxygenase type 1 (human).
The test system of assay [16] is Cytochrome b ascorbate-dependent protein 3 (human).
The test system of assay [17] is Cytochrome b-c1 complex subunit 6, mitochondrial (human).
Assay [18] has as its system Cytochrome b5 domain-containing protein 2 (human).
Assay [19] has as its system Cytochrome c oxidase assembly protein COX19 (human).
Assay [20] deals with Cytochrome c oxidase polypeptide VIc (human).

Values joined by “and” are separate entries in the source; they are usually repeats but may differ in a detail not shown here. Equal entries are not always repeated. The list shows a part of the results.

“GGGAGGCTGAGGCAGG [G4-1 biotinylated (PQS2)]”: the binding signal is -0.332 z-score in assay [1]; -0.37 z-score in assay [2]; -0.345 z-score in [3]; -0.304 z-score in [4]; -0.338 z-score in assay [5]; 4.95 z-score in assay [6]. Moreover, the binding signal in assay [7] is -0.319 z-score; in [8], -0.342 z-score; in [9], -0.348 z-score; in assay [10] it was -0.325 z-score; in [11], -0.259 z-score; in assay [12], -0.347 z-score. Besides, the binding signal in assay [13] was 6.26 z-score; in assay [14] it was -0.362 z-score; in assay [15], -0.341 z-score and -0.337 z-score; in [16], -0.292 z-score; in [17], -0.329 z-score; in assay [18], -0.278 z-score. Moreover, the binding signal was -0.286 z-score in [19] and -0.325 z-score in assay [20].
